Test results reported in PubChem BioAssay AID328 (DTP/NCI, 2004).
The list is a part of this screen's results and no random one: it gathers tests that were run many times, whatever their T/C, doses with no T/C, and many T/C values between a quarter and a half above the control. Other doses and runs of a compound stand elsewhere. T/C gives the treated animals as a percentage of the vehicle group. Some entries give survivors of the animals treated and no T/C: the source holds a T/C of zero for them, seemingly a mark for toxic or unscored doses. Some doses without a T/C left all or most animals alive at the check, yet need not have been tolerated: survival well below the control is almost never listed, so the zero probably covers shortened survival too. Counts of survivors are from the toxicity check (mostly the fifth day) where no day follows; animals may have died later. Schedules are NCI's codes, read here as Q, the interval in days (D) or hours (H), X, the number of doses. Some entries hold several experiments; the results are listed from low to high. Where survival is the endpoint, the PubChem record calls one and a half times the control and up active, and a quarter to a half above the control has no call in these data; cut-offs in other NCI protocols can differ. Some T/C values are followed by the survivors on the day toxicity was checked, most often the fifth; without a count, all were alive then.

Tested on: BDF1 mice, P388 leukemia ip, median survival T/C
Test: NCI In Vivo Anticancer Drug Screen. Data for tumor model P388 Leukemia (intraperitoneal) in B6D2F1 (BDF1) mice
Conditions: T/C endpoint: median survival time, higher T/C = longer survival
How it was run: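 Compound-treated tumour-bearing mice were compared with vehicle-treated controls. Survival was recorded, and the value is the treated-group measurement divided by the control-group measurement (T/C).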

[1] = dose: 6.25 mg/kg/injection, schedule: Q01DX009 (ip), vehicle: saline
[2] = dose: 12.5 mg/kg/injection, schedule: Q01DX009 (ip), vehicle: saline
[3] = dose: 25.0 mg/kg/injection, schedule: Q01DX009 (ip), vehicle: saline
[4] = dose: 100.0 mg/kg/injection, schedule: Q01DX009 (ip), vehicle: saline
[5] = dose: 12.5 mg/kg/injection, schedule: Q01DX009 (ip), vehicle: Klucel (hydroxypropylcellulose) (HPC)
[6] = dose: 25.0 mg/kg/injection, schedule: Q01DX009 (ip), vehicle: Klucel (hydroxypropylcellulose) (HPC)
[7] = dose: 50.0 mg/kg/injection, schedule: Q01DX009 (ip), vehicle: Klucel (hydroxypropylcellulose) (HPC)
[8] = dose: 400.0 mg/kg/injection, schedule: Q01DX009 (ip), vehicle: Klucel (hydroxypropylcellulose) (HPC)
[9] = dose: 200.0 mg/kg/injection, schedule: Q01DX009 (ip), vehicle: saline
[10] = dose: 400.0 mg/kg/injection, schedule: Q01DX009 (ip), vehicle: saline
[11] = dose: 100.0 mg/kg/injection, schedule: Q01DX009 (ip), vehicle: saline with Tween-80
[12] = dose: 200.0 mg/kg/injection, schedule: Q01DX005 (ip), vehicle: saline with Tween-80
[13] = dose: 50.0 mg/kg/injection, schedule: Q01DX009 (ip), vehicle: saline with Tween-80
[14] = dose: 200.0 mg/kg/injection, schedule: Q01DX009 (ip), vehicle: saline with Tween-80
[15] = dose: 400.0 mg/kg/injection, schedule: Q01DX009 (ip), vehicle: saline with Tween-80

OCCOCCN1CCN(CCCN2c3ccccc3Sc3ccc(C(F)(F)F)cc32)CC1
survivor count (dose: 3.12 mg/kg/injection, schedule: Q01DX009 (ip), vehicle: saline): 6 of 6
survivor count [1]: 6 of 6
survivor count [2]: 4 of 7
survivor count [3]: 2 of 7
T/C (dose: 25.0 mg/kg/injection, schedule: Q04DX003 (ip), vehicle: saline): 126 % of control
survivor count (dose: 50.0 mg/kg/injection, schedule: Q01DX009 (ip), vehicle: saline): 0 of 7
T/C (dose: 50.0 mg/kg/injection, schedule: Q04DX003 (ip), vehicle: saline): 129 and 145 % of control
survivor count [4]: 0 of 7
survivor count (dose: 100.0 mg/kg/injection, schedule: Q04DX003 (ip), vehicle: saline): 3 of 6 and 4 of 6

O=[As]c1ccc(Br)cc1 (stereo not given)
survivor count (dose: 3.0 mg/kg/injection, schedule: Q01DX009 (ip), vehicle: Klucel (hydroxypropylcellulose) (HPC)): 5 of 6
survivor count (dose: 6.0 mg/kg/injection, schedule: Q01DX009 (ip), vehicle: Klucel (hydroxypropylcellulose) (HPC)): 0 of 6
survivor count (dose: 12.0 mg/kg/injection, schedule: Q01DX009 (ip), vehicle: Klucel (hydroxypropylcellulose) (HPC)): 0 of 6
survivor count [5]: 0 of 6
survivor count [6]: 0 of 6
survivor count [7]: 0 of 6
survivor count (dose: 100.0 mg/kg/injection, schedule: Q01DX009 (ip), vehicle: Klucel (hydroxypropylcellulose) (HPC)): 0 of 6
survivor count (dose: 200.0 mg/kg/injection, schedule: Q01DX009 (ip), vehicle: Klucel (hydroxypropylcellulose) (HPC)): 0 of 6
survivor count [8]: 0 of 6

CCN(CC)C(=S)S
T/C (dose: 800.0 mg/kg/injection, schedule: Q01DX010 (ip), vehicle: water): 140 % of control

CC(C)N1c2c(nc(N)[nH]c2=O)NCC1CNc1ccc(C(=O)NC(CCC(=O)O)C(=O)O)cc1 (stereo not given)
T/C [9]: 127 % of control

CCOC(=O)N1C=Cn2c(cnc2C)C1O (stereo not given)
survivor count [9]: 5 of 6
survivor count [10]: 6 of 6

O=C1OC(C(O)CO)C(O)=C1O (stereo not given)
T/C (dose: 0.12 mg/kg/injection, schedule: Q01DX009 (ip), vehicle: saline, evaluated on day 30): 100, 109, 110 % of control
T/C (dose: 0.12 mg/kg/injection, schedule: Q01DX009 (ip), vehicle: saline, evaluated on day 60): 100 % of control
survivor count (dose: 8.0 mg/kg/injection, schedule: Q01DX001 (ip), vehicle: saline): 5 of 10
survivor count [10]: 3 of 6

CC(=O)/C(=C\c1ccc(Cl)c(Cl)c1)C(=O)c1ccccc1
survivor count (dose: 400.0 mg/kg/injection, schedule: Q04DX003 (ip), vehicle: other): 6 of 6

O=C(OC1C2C=CC(C(O)O2)C1c1ccccc1)c1ccc(Cl)cc1 (stereo not given)
survivor count (dose: 400.0 mg/kg/injection, schedule: Q01DX001 (ip), vehicle: saline with Tween-80): 6 of 6

O=S(=O)(CI)OCCCl
survivor count (dose: 200.0 mg/kg/injection, schedule: Q01DX005 (ip), vehicle: Klucel (hydroxypropylcellulose) (HPC)): 0 of 6

O=C(NC(=O)C(F)(F)C(F)(F)F)Nc1cccc(F)c1
survivor count [6]: 6 of 6

CCCCNC(C)(C)COC(=O)/C=C/c1ccc(OCCCC)cc1
survivor count (dose: 100.0 mg/kg/injection, schedule: Q01DX010 (ip), vehicle: saline): 6 of 6
survivor count (dose: 200.0 mg/kg/injection, schedule: Q01DX010 (ip), vehicle: saline): 3 of 6
survivor count (dose: 400.0 mg/kg/injection, schedule: Q01DX010 (ip), vehicle: saline): 0 of 6

CCCCCCC(=O)/C=C/c1cccc(Cl)c1
survivor count (dose: 200.0 mg/kg/injection, schedule: Q04DX003 (ip), vehicle: saline): 6 of 6

COC(=O)[C@@H]1[C@H](O)[C@H](C)[C@H](O)[C@H](C)/C=C\C=C(C)C(=O)Nc2c(C)c(OC(C)=O)c3c(c2O)C(=O)C(C)=C2OCOC(=C23)C(C)=C[C@@](C)(O)[C@H](O)[C@@H](C)[C@H]1OC(C)=O
T/C [8]: 128 % of control

C(/C=C\c1ccccc1)=Nc1ccccc1
T/C [11]: 130 % of control

COc1cc2ccc3c(c2cc1OC)CN1CCc2cc4c(cc2C1C3)OCO4 (stereo not given)
T/C (dose: 66.0 mg/kg/injection, schedule: Q01DX009 (ip), vehicle: saline with Tween-80): 130 % of control
T/C [11]: 140 [5 of 6 alive] and 145 % of control
T/C (dose: 150.0 mg/kg/injection, schedule: Q01DX009 (ip), vehicle: saline with Tween-80): 140 % of control

CC(=O)c1ccc2c(c1)N(CCCN1CCN(CCO)CC1)c1ccccc1S2
survivor count [3]: 6 of 6

O=[N+]([O-])/C=C/c1ccccc1Cl
survivor count (dose: 15.0 mg/kg/injection, schedule: Q04DX003 (ip), vehicle: other): 4 of 6
survivor count (dose: 22.5 mg/kg/injection, schedule: Q04DX003 (ip), vehicle: other): 4 of 6

NC(N)=N/N=C\c1c2ccccc2cc2ccccc12
T/C (dose: 0.78 mg/kg/injection, schedule: Q01DX009 (ip), vehicle: other): 125 % of control
T/C (dose: 1.56 mg/kg/injection, schedule: Q01DX009 (ip), vehicle: other): 149 % of control

C=C1C(=O)CCC1/C=C\C (stereo not given)
survivor count (dose: 100.0 mg/kg/injection, schedule: Q01DX005 (ip), vehicle: saline with Tween-80): 0 of 6
survivor count [12]: 0 of 6

O/N=C(\C[n+]1ccccc1)c1ccc2ccccc2c1
T/C [1]: 126 % of control
T/C [5]: 140 % of control
T/C [2]: 128 and 129 % of control
T/C [3]: 145 % of control
survivor count [4]: 0 of 6

Cc1nc(Cl)c(C(N)=O)nc1C
survivor count [13]: 6 of 6
survivor count [14]: 5 of 6
survivor count [15]: 3 of 6

O=C(C[n+]1cc2ccccc2c2ccccc21)c1ccccc1
T/C [7]: 133 % of control
survivor count (dose: 75.0 mg/kg/injection, schedule: Q01DX009 (ip), vehicle: Klucel (hydroxypropylcellulose) (HPC)): 4 of 6
survivor count (dose: 150.0 mg/kg/injection, schedule: Q01DX009 (ip), vehicle: Klucel (hydroxypropylcellulose) (HPC)): 4 of 6
survivor count (dose: 225.0 mg/kg/injection, schedule: Q01DX009 (ip), vehicle: Klucel (hydroxypropylcellulose) (HPC)): 0 of 6

CN(C)CCOCN1COCC1(C)C
T/C [11]: 139 % of control
survivor count [14]: 4 of 6

S=C([S][Sn]([c]1ccccc1)([c]1ccccc1)[c]1ccccc1)N1CCCCC1
survivor count [13]: 6 of 6
survivor count [11]: 5 of 6
survivor count [14]: 1 of 6
survivor count [15]: 0 of 6

COc1cc(N=Nc2ccc(O)c3ncccc23)c(OC)cc1N=Nc1ccc([N+](=O)[O-])cc1
survivor count [12]: 5 of 5

c1nc(N2CC2)c2cnn(C3CCCCO3)c2n1 (stereo not given)
survivor count [8]: 0 of 6

Nc1nc(=S)c2ncn(C3OC(CO)CC3O)c2[nH]1 (stereo not given)
survivor count [9]: 5 of 6
survivor count [10]: 3 of 6

c1ccc(SCN2CCN(CSc3ccccc3)CC2)cc1
survivor count (dose: 25.0 mg/kg/injection, schedule: Q01DX001 (ip), vehicle: saline): 6 of 6

O=C1CC(c2ccc(OCN(CCCl)CCCl)cc2)CC(=O)C1CN(CCCl)CCCl (stereo not given)
T/C (dose: 1.0 mg/kg/injection, schedule: Q01DX009 (ip), vehicle: Klucel (hydroxypropylcellulose) (HPC)): 145 % of control
T/C (dose: 2.0 mg/kg/injection, schedule: Q01DX009 (ip), vehicle: Klucel (hydroxypropylcellulose) (HPC)): 145 % of control
T/C (dose: 8.0 mg/kg/injection, schedule: Q01DX009 (ip), vehicle: Klucel (hydroxypropylcellulose) (HPC)): 145 % of control

CCCCCCSc1ncnc2nc[nH]c12
survivor count [15]: 3 of 6

CCCCCCCCN(c1ccc(I)cc1)S(=O)(=O)c1ccc(C)cc1
T/C (dose: 200.0 mg/kg/injection, schedule: Q04DX003 (ip), vehicle: saline with Tween-80): 138 % of control

Cc1c(Cl)cccc1NC(=O)/C=C/C(=O)O
T/C [11]: 131 % of control
